The target in test [1] is T1, SPANXB1 (human (endogenous in MDA-MB-231)) (UniProt Q9NS25).
T1 sequence: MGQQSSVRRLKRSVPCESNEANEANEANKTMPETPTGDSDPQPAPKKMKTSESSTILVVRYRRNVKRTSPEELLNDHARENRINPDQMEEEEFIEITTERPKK
Briefly: co-IP; whole cell lysates of naïve MDA-MB-231 cells; precipitated in both directions, Western blot (Fig. S4). Background: Immunoblotting shows a protein as a band on a membrane.

Sequences of proteins named here, by UniProt entry; tags and fusion partners are left off.
UniProt Q99962: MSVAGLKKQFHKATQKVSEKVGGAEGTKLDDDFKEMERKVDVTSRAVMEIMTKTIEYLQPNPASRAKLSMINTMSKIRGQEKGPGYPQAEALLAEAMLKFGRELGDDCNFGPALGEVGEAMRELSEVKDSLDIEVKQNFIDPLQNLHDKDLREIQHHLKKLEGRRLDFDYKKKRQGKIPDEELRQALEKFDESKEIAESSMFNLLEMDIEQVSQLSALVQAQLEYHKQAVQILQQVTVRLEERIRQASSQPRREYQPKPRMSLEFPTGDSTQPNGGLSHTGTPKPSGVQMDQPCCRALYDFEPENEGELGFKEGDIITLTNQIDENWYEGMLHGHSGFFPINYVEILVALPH

Test [2] concerns the target T2, SPANXB1 (UniProt Q9NS25).
T2 sequence: T1 sequence
As to the kind of experiment: co-IP; whole cell lysates of SPANXB1-overexpressing HMLE cells; precipitated in both directions, Western blot.

For test [3], the target named is SH3GL2 (human (endogenous in MDA-MB-231)) (UniProt Q99962). As to the kind of experiment: co-IP; whole cell lysates of naïve MDA-MB-231 cells; precipitated in both directions, Western blot (Fig. S4).
Test [4] addresses SH3GL2 (human (endogenous in HMLE)) (UniProt Q99962). Briefly: co-IP; whole cell lysates of SPANXB1-overexpressing HMLE cells; precipitated in both directions, Western blot.

The values that follow come from PMC6690992.

No constants are given. Whether binding was seen depends on the method and setting. Binding seen in cells or lysates may run through a third protein. Some results given as binding are weak or reduced against the parent protein; the word gives no strength.

Consider SH3GL2 (from UniProt Q99962 1-352), for which the binding entry in test [1] and in test [2] was “binds” in each case.

B1: SPANXB1 (protein, UniProt Q9NS25 1-103)
chain: T1 sequence
On to B1, for which the binding entry in test [3] and in test [4] was “binds” throughout.
